# Reference: PubChem BioAssay AID1117359 (Southern Research Institute, 2015)
# About 460 (31%) of roughly 1,500 compounds were called active.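 The calls were made as follows: active = viability at or below 80% at any tested concentration, marking the compound as toxic; inactive = the rest.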 Only a part is listed here, and it is no random draw. Potency and affinity values are given separately.
# Assay: viability loss in THP-1 monocytes – THP-1 cells, cytotoxicity control for Vif-APOBEC3G degradation inhibitor project, dose response (AID 1117359)
# Conditions: THP-1 viability, CellTiter-Glo luminescence, 72 h; at 40 µM (top of the series)
row,SMILES,viability
1,O=C(CSc1ncnc2ccccc12)Nc1cccc(S(=O)(=O)N2CCOCC2)c1,inactive: 98.2%
2,CC(=O)c1ccc(-c2nnc(CCC(=O)N(C)Cc3c(C)nc4ccccn34)o2)s1,inactive: 104%
3,CC(C)OCCCNC(=O)c1cccs1,inactive: 110%
4,CC(=O)c1ccc(N2CCN(C(=O)c3ccc4c(c3)OCO4)CC2)cc1,inactive: 86.4%
5,O=C1CC(SC(=S)C2CCCC2=O)C(=O)N1 (stereo unspecified),inactive: 102%
6,CC(=O)c1ccc(NC(=O)c2ccc3nc(-c4ccco4)c(-c4ccco4)nc3c2)cc1,inactive: 100%
7,CN(C)C(=O)c1nc2ccc(Cl)cn2c1CN1CCCC(OCc2ccccc2)C1 (stereo unspecified),inactive: 81.6%
8,CC(C)(C)NC(=O)CSc1nnc(-c2ccccn2)n1Cc1ccccc1,inactive: 98.6%
9,CC(=O)Nc1nnc(SCC(=O)N2CCCc3ccccc32)s1,inactive: 106%
10,Cc1c(C(=O)N2CCCCC2)nnn1-c1nonc1N,inactive: 93.2%
11,CC(Cc1c[nH]c2ccccc12)C(=O)NCc1ccco1 (stereo unspecified),inactive: 93.4%
12,CCOc1ccc(NC(=O)CCS(=O)(=O)c2ccc(Br)cc2)cc1,inactive: 98%
13,CCOC(=O)c1c(N)sc(=S)c2c1CCC2,inactive: 80.8%
14,CCOc1ccc(NC(=O)c2ccccc2NS(C)(=O)=O)cc1,inactive: 83.8%
15,O=C1NC(=Nc2ccc(F)cc2)SC1Cc1ccc(F)cc1 (stereo unspecified),inactive: 91.6%
16,O=C(O)C1Nc2c(Cl)cc(Cl)c(Cl)c2C2C=CCC12 (stereo unspecified),inactive: 95.9%
17,O=C(CN1C(=O)c2ccccc2C1=O)NCC(=O)OCC(=O)c1cccc([N+](=O)[O-])c1,inactive: 91.2%
18,CC(=O)c1ccc(N2C(=NC(=O)C3CCCO3)SC3CS(=O)(=O)CC32)cc1 (stereo unspecified),inactive: 102%
19,CC(=O)Nc1ccc(NC(=O)C(C)OC(=O)CC23CC4CC(CC(Br)(C4)C2)C3)cc1 (stereo unspecified),inactive: 94.2%
20,COc1ccc(C)cc1NC(=O)COC(=O)CCC(=O)c1cccs1,inactive: 106%
21,Oc1c(CN2CCOCC2)cc(CN2CCOCC2)c(O)c1O,inactive: 94%
22,Cc1cc(-c2csc(NC(=O)c3ccc(C#N)cc3)n2)c(C)n1Cc1ccco1,inactive: 106%
23,Cc1c(Br)c(O)c(Br)c2sc(=O)oc12,inactive: 101%
24,Cc1ccc(NC(=O)CN2C(=O)N/C(=C/c3ccco3)C2=O)cc1,inactive: 106%

row,SMILES,viability
1,CCCCn1c(N)c(N(CCOC)C(=O)c2cc(-c3ccco3)nc3ccccc23)c(=O)[nH]c1=O,inactive: 101%
2,CC1OC(OCC2OC(Oc3c(-c4ccc(O)cc4)oc4cc(O)cc(O)c4c3=O)C(O)C(O)C2O)C(O)C(O)C1O (stereo unspecified),inactive: 104%
3,Clc1ccccc1CSc1nnc(-c2ccco2)c(-c2ccco2)n1,inactive: 94.3%
4,COc1ccc(NC(=O)c2ccc(S(=O)(=O)N3CCOCC3)o2)cc1,inactive: 115%
5,O=C(Nc1nnc(C2CCCO2)s1)c1cccs1 (stereo unspecified),inactive: 87.6%
6,CCC(NC(=O)Nc1ccc(O)cc1)(C(F)(F)F)C(F)(F)F,inactive: 96%
7,O=c1c(N=Nc2ccc(O)cc2)c(-c2ccccc2)[nH]n1-c1ccc([N+](=O)[O-])cc1,inactive: 86%
8,COc1ccccc1NCCC(=O)OCC(=O)NCc1ccco1,inactive: 108%
9,COc1ccc2c(c1OC)C(=O)OC2Nc1nc(-c2cc3cc([N+](=O)[O-])ccc3oc2=O)cs1 (stereo unspecified),inactive: 104%
10,Cc1nc2c(=O)[nH]c(=S)[nH]c2[nH]c1=O,inactive: 110%
11,Cc1cc2c(N)cccc2nn1,inactive: 97.5%
12,Oc1cc2c(cc1O)[C@H]1c3ccc(O)c(O)c3OC[C@@]1(O)C2,inactive: 103%
13,CN(C(=O)COc1ncnc2sccc12)c1ccccc1,inactive: 107%
14,CC(=O)NN1C(=O)/C(=C/c2ccc(Br)o2)SC1=S,inactive: 91.9%
15,COc1ccc(C(=O)N/N=C/c2cccnc2)cc1,inactive: 91.2%
16,Cc1cc(C)nc(N/N=C/C2=C(N3CCOCC3)C(=C\c3ccc(Cl)cc3)/CC2)n1,inactive: 86.4%
17,Cc1ccc(NC(=O)C(C)NC(=O)OCc2ccccc2)cc1C (stereo unspecified),inactive: 101%
18,CN(C)c1ccc(N2C(=O)CC(Nc3ccc(N4CCOCC4)cc3)C2=O)cc1 (stereo unspecified),inactive: 102%
19,Cc1ccc(C)n1Cc1ccc(C(=O)O)cc1,inactive: 98.5%
20,O=C(O)c1ccc2c(c1)[C@@H]1C=CC[C@@H]1[C@H](c1ccccn1)N2,inactive: 110%
21,CSc1nc(NCCCO)c2c3c(sc2n1)CN(C)CC3,inactive: 97.1%
22,Cc1nn(-c2ccccn2)c2c1C(=O)C(Br)CC2 (stereo unspecified),inactive: 83.4%
23,CC1=C/C(=N\OS(=O)(=O)c2ccccc2)C=CC1=O,inactive: 102%
24,CCCC1=NN2C(=N)/C(=C\c3ccc(SCc4ccco4)o3)C(=O)N=C2S1,inactive: 85.6%

row,SMILES,viability
1,CCN(CC(=O)Nc1c(F)cccc1F)C(=O)c1cccc(-n2cccc2)c1,inactive: 107%
2,Cc1ccc(/C=C/C(=O)Nc2ccc([N+](=O)[O-])c(NC(=O)/C=C/c3ccc(C)o3)c2)o1,inactive: 102%
3,COc1cccc(NS(=O)(=O)c2ccc3c(c2)C2C=CCC2C(c2ccc(C(=O)O)cc2)N3)c1 (stereo unspecified),inactive: 95.3%
4,O=C(Cn1cncn1)N/N=C/c1ccccc1Cl,inactive: 99.5%
5,CCN(CC)c1ccc(NC(=O)CCS(=O)(=O)c2ccc(Br)cc2)c(C)c1,inactive: 91.6%
6,Cc1nc(C)c(C(=O)OCC(=O)Nc2ccc(C)c(C)c2)s1,inactive: 91.1%
7,N#Cc1c(-c2ccco2)cc(-c2ccccc2)[nH]c1=O,inactive: 89.4%
8,Cc1sc(NC(=O)CSc2nnnn2C(C)C)c(C#N)c1C,inactive: 95.3%
9,CC(C)(C)C(=O)O/N=C(\N)c1c(Cl)cccc1Cl,inactive: 108%
10,COc1ccc(S(=O)(=O)N2CCN(C(=O)c3cc(C)on3)CC2)cc1,inactive: 93.9%
11,CC1CCCC(NC(=O)C2CCC(CNc3c(N4CCCC4)c(=O)c3=O)CC2)C1C (stereo unspecified),inactive: 93.1%
12,O=C1CSC(c2cccnc2)N1Cc1cccnc1 (stereo unspecified),inactive: 109%
13,Brc1ccc(-c2nnc(-c3cccc(Br)c3)o2)cc1,inactive: 104%
14,COc1ccc(/C=N/NC(=O)c2cc(O)c(O)c(O)c2)cc1Cn1cc([N+](=O)[O-])cn1,inactive: 125%
15,CCOC(=O)COc1nc(-c2ccco2)cc(-c2ccco2)c1C#N,inactive: 92.6%
16,Cc1cc(S(=O)(=O)n2ccnc2)c(Cl)cc1Cl,inactive: 116%
17,CC1(C)CC(=O)C(C2NCCc3ccccc32)=C(O)C1 (stereo unspecified),inactive: 87.3%
18,O=C1/C(=C/c2ccco2)Oc2c1ccc(O)c2CN1CCCCC1,inactive: 113%
19,COCCn1nnnc1C(c1cc2cc(OC)c(OC)cc2[nH]c1=O)N1CCN(c2ccc(O)cc2)CC1 (stereo unspecified),inactive: 115%
20,O=C(O)C1Nc2ccc(Br)cc2C2C=CCC12 (stereo unspecified),inactive: 109%
21,COC(=O)COc1ccc2c(c1C)O/C(=C\c1ccco1)C2=O,inactive: 96.7%
22,COC(=O)c1ccc(S(=O)(=O)N2CCN(CCO)CC2)n1C,inactive: 93.1%
23,CCN1C(=O)c2c(C)nc3ccccc3c2C1=O,inactive: 99.6%
24,Cc1ccc(OCc2ccc(C(=O)NN)o2)cc1C,inactive: 89.7%

# Molecules from the list above with a furan ring, fused or not, in the order listed:
row,SMILES,viability
6,CC(=O)c1ccc(NC(=O)c2ccc3nc(-c4ccco4)c(-c4ccco4)nc3c2)cc1,inactive: 100%
11,CC(Cc1c[nH]c2ccccc12)C(=O)NCc1ccco1 (stereo unspecified),inactive: 93.4%
22,Cc1cc(-c2csc(NC(=O)c3ccc(C#N)cc3)n2)c(C)n1Cc1ccco1,inactive: 106%
24,Cc1ccc(NC(=O)CN2C(=O)N/C(=C/c3ccco3)C2=O)cc1,inactive: 106%
1,CCCCn1c(N)c(N(CCOC)C(=O)c2cc(-c3ccco3)nc3ccccc23)c(=O)[nH]c1=O,inactive: 101%
3,Clc1ccccc1CSc1nnc(-c2ccco2)c(-c2ccco2)n1,inactive: 94.3%
4,COc1ccc(NC(=O)c2ccc(S(=O)(=O)N3CCOCC3)o2)cc1,inactive: 115%
8,COc1ccccc1NCCC(=O)OCC(=O)NCc1ccco1,inactive: 108%
14,CC(=O)NN1C(=O)/C(=C/c2ccc(Br)o2)SC1=S,inactive: 91.9%
24,CCCC1=NN2C(=N)/C(=C\c3ccc(SCc4ccco4)o3)C(=O)N=C2S1,inactive: 85.6%
2,Cc1ccc(/C=C/C(=O)Nc2ccc([N+](=O)[O-])c(NC(=O)/C=C/c3ccc(C)o3)c2)o1,inactive: 102%
7,N#Cc1c(-c2ccco2)cc(-c2ccccc2)[nH]c1=O,inactive: 89.4%
15,CCOC(=O)COc1nc(-c2ccco2)cc(-c2ccco2)c1C#N,inactive: 92.6%
18,O=C1/C(=C/c2ccco2)Oc2c1ccc(O)c2CN1CCCCC1,inactive: 113%
21,COC(=O)COc1ccc2c(c1C)O/C(=C\c1ccco1)C2=O,inactive: 96.7%
24,Cc1ccc(OCc2ccc(C(=O)NN)o2)cc1C,inactive: 89.7%

# Two entries picked at random from those above, as already listed:
row,SMILES,viability
8,Cc1sc(NC(=O)CSc2nnnn2C(C)C)c(C#N)c1C,inactive: 95.3%
4,O=C(Cn1cncn1)N/N=C/c1ccccc1Cl,inactive: 99.5%

# (more compounds)

row,SMILES,viability
1,CCc1cccc(NC(=O)CCS(=O)(=O)c2ccc(Br)cc2)c1,inactive: 87.2%
2,NC(CO)C(=O)NNCc1ccc(O)c(O)c1O (stereo unspecified),inactive: 91.1%
3,COc1cc(/C=C2/C(=O)N(c3ccc(Br)cc3)N=C2C)cc(OC)c1OC,inactive: 92.3%
4,CC1=Nc2nc(N3CCCCC3)c(C#N)c3c4c(nc(c23)N1)N(c1ccc(C(C)C)cc1)C(=O)C4,inactive: 89.2%
5,O=C(Nc1ccc(F)c(Cl)c1)c1cccnc1,inactive: 80%
6,Cc1cc(C(=O)NNC(=O)/C=C/c2ccco2)c(C)o1,inactive: 102%
7,CCOC(=O)C(=O)Cc1cccnn1,inactive: 114%
8,C/C(=N\Nc1ccc(Cl)c(C(=O)O)c1)c1ccc[nH]1,inactive: 101%
9,O=C(O)CCCCC1CCSS1 (stereo unspecified),inactive: 84.7%
10,CC1=C(C(=O)OCC(Cl)(Cl)Cl)N2C(=O)C(NC(=O)Cc3ccccc3)C2SC1 (stereo unspecified),inactive: 93.4%
11,O=C(O)c1ccc(-n2cccc2/C=C2/NC(=O)N(c3cccc(Cl)c3)C2=O)cc1,inactive: 101%
12,CCC1CCC2(CC1)NC(=O)N(CC(=O)Nc1ccc(OC)c(Cl)c1)C2=O (stereo unspecified),inactive: 109%
13,Cc1ccccc1NS(=O)(=O)c1ccc2[nH]cc(C(=O)N(C)Cc3ccco3)c(=O)c2c1,inactive: 84.1%
14,CC(/C=N/n1c(-c2ccncc2)n[nH]c1=S)=C\c1ccco1,inactive: 96.5%
15,CNCc1ccccc1Sc1ccc(O)c(O)c1,inactive: 91.4%
16,COc1ccccc1NC(=O)CN(c1ccccc1OC)S(=O)(=O)c1ccccc1,inactive: 85.5%
17,C=C(C)C(=O)Nc1cccc(C2=NOC3(C2)C[C@H](C(N)=O)N(C(=O)C(c2ccccc2)c2ccccc2)C3)c1 (stereo partly specified),inactive: 87.4%
18,Cc1ccccc1OCC(=O)OCC(=O)c1ccc(OC(=O)c2ccccc2)cc1,inactive: 96.2%
19,Cc1onc(-c2ccccc2)c1CNC(=O)C1COc2ccccc2O1 (stereo unspecified),inactive: 81%
20,Cc1cccc(NC(=O)CSc2nnc(CCC(=O)Nc3ccc(C)c(Cl)c3)n2C)c1,inactive: 99.7%
21,O=C(NCCc1ccccc1)c1ccc2nc(-c3ccco3)c(-c3ccco3)nc2c1,inactive: 86.9%
22,COc1cccc(CN2CCSCC2)c1,inactive: 91.3%
23,CCCc1cc(=O)[nH]c(SCC(=O)c2c(C)[nH]c3ccccc23)n1,inactive: 116%
24,O=C(O)c1cccc2cccc(-c3c4ccc(=O)c(O)c-4oc4c(O)c(O)ccc34)c12,inactive: 89.6%
